Measurements as given in the supplement of paper PMC10849652.
The other results are listed elsewhere or left out.

Sequences of proteins named here, by UniProt entry; tags and fusion partners are left off. A change or cut given only in a name is not applied to a line headed by its entry.
UniProt Q9BYE7: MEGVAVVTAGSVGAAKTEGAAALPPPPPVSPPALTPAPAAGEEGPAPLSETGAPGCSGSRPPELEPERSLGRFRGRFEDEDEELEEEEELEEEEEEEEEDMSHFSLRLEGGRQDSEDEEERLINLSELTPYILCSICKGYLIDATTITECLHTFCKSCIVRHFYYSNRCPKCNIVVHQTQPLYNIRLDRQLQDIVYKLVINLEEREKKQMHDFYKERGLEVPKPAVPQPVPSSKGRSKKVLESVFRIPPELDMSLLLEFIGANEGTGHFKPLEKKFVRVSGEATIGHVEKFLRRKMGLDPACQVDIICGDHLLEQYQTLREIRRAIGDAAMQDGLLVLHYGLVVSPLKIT
UniProt P60673: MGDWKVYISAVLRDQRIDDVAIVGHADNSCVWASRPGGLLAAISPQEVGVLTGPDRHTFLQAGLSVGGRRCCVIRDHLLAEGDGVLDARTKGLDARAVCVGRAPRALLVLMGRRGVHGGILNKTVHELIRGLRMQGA
UniProt Q9BSM1: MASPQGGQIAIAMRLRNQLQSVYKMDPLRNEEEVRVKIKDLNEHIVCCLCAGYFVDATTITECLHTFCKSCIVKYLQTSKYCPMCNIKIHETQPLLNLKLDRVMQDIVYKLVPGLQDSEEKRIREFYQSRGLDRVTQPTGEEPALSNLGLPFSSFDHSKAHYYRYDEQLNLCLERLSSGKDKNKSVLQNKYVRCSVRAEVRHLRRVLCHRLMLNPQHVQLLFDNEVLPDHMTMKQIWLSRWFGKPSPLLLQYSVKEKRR
UniProt Q9NWS1: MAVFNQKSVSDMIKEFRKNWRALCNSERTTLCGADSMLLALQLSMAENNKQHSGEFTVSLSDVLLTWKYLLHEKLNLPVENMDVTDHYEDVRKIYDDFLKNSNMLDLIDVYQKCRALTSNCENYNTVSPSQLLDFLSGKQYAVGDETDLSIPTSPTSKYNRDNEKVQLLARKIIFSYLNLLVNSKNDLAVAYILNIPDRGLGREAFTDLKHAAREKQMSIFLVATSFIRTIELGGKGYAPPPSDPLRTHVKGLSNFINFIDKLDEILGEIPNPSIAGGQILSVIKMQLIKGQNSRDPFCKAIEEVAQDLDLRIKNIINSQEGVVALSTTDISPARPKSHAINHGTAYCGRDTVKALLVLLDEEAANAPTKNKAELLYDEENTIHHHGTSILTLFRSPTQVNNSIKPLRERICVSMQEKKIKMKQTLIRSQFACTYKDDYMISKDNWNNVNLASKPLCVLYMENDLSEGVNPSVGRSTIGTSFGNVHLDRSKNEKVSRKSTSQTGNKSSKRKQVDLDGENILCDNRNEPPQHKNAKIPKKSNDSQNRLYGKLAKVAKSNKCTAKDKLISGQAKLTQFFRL
UniProt Q96MG8: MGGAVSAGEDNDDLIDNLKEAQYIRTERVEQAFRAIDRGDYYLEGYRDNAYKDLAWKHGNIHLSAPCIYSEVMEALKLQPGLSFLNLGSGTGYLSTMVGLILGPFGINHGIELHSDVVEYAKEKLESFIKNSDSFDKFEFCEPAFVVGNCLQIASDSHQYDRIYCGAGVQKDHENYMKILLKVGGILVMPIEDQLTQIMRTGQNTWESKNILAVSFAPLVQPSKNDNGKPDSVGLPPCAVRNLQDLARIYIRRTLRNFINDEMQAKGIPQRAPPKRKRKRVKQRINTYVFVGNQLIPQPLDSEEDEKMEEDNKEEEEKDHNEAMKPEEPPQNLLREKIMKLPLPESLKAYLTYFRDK
UniProt O43933: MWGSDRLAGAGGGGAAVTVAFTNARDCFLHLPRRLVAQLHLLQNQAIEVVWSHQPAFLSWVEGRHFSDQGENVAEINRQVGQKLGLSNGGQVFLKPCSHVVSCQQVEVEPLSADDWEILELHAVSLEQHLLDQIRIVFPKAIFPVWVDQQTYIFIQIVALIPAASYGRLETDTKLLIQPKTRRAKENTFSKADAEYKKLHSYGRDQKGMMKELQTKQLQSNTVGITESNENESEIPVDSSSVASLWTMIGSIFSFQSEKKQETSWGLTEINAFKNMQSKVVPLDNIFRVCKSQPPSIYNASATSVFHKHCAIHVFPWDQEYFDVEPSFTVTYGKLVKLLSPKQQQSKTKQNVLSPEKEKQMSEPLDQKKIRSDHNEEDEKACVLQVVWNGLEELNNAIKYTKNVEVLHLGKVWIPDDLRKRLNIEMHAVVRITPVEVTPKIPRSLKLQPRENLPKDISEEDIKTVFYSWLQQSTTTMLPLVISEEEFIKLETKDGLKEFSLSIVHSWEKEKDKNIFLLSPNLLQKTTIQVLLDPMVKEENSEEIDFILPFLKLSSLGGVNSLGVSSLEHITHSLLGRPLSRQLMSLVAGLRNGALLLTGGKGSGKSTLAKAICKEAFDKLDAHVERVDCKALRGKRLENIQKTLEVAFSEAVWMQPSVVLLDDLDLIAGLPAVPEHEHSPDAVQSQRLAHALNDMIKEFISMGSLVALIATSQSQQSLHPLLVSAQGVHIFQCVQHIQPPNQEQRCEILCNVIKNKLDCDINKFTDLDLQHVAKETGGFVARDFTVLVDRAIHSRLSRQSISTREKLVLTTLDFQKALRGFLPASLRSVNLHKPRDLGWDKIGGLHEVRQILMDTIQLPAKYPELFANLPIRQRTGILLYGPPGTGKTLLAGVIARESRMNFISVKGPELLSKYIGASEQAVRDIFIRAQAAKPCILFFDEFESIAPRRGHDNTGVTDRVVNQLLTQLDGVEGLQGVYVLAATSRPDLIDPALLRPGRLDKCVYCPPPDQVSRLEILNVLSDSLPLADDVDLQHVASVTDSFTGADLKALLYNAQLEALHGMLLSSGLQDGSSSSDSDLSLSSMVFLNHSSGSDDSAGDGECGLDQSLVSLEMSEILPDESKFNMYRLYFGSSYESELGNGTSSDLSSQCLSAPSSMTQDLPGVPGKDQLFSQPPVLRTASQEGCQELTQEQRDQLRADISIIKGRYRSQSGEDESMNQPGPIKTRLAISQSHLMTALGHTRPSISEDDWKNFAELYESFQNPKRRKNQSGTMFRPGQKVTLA
UniProt Q9UBM1: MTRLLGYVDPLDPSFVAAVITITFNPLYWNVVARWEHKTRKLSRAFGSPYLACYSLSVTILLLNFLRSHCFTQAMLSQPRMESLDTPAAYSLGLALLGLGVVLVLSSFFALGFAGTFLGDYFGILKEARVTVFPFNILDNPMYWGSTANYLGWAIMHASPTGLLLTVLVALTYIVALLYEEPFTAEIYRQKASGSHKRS
UniProt Q9NV79: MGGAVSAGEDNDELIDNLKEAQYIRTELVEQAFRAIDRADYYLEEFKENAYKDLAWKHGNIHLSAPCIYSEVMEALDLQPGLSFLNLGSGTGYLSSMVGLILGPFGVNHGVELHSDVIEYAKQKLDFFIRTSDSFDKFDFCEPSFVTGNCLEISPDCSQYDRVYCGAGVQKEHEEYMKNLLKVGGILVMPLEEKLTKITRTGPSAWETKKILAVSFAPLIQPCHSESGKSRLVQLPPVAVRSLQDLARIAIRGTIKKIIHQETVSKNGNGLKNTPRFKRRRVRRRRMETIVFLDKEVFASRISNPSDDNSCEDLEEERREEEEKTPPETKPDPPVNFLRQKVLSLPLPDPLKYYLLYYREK
UniProt Q9UKK3: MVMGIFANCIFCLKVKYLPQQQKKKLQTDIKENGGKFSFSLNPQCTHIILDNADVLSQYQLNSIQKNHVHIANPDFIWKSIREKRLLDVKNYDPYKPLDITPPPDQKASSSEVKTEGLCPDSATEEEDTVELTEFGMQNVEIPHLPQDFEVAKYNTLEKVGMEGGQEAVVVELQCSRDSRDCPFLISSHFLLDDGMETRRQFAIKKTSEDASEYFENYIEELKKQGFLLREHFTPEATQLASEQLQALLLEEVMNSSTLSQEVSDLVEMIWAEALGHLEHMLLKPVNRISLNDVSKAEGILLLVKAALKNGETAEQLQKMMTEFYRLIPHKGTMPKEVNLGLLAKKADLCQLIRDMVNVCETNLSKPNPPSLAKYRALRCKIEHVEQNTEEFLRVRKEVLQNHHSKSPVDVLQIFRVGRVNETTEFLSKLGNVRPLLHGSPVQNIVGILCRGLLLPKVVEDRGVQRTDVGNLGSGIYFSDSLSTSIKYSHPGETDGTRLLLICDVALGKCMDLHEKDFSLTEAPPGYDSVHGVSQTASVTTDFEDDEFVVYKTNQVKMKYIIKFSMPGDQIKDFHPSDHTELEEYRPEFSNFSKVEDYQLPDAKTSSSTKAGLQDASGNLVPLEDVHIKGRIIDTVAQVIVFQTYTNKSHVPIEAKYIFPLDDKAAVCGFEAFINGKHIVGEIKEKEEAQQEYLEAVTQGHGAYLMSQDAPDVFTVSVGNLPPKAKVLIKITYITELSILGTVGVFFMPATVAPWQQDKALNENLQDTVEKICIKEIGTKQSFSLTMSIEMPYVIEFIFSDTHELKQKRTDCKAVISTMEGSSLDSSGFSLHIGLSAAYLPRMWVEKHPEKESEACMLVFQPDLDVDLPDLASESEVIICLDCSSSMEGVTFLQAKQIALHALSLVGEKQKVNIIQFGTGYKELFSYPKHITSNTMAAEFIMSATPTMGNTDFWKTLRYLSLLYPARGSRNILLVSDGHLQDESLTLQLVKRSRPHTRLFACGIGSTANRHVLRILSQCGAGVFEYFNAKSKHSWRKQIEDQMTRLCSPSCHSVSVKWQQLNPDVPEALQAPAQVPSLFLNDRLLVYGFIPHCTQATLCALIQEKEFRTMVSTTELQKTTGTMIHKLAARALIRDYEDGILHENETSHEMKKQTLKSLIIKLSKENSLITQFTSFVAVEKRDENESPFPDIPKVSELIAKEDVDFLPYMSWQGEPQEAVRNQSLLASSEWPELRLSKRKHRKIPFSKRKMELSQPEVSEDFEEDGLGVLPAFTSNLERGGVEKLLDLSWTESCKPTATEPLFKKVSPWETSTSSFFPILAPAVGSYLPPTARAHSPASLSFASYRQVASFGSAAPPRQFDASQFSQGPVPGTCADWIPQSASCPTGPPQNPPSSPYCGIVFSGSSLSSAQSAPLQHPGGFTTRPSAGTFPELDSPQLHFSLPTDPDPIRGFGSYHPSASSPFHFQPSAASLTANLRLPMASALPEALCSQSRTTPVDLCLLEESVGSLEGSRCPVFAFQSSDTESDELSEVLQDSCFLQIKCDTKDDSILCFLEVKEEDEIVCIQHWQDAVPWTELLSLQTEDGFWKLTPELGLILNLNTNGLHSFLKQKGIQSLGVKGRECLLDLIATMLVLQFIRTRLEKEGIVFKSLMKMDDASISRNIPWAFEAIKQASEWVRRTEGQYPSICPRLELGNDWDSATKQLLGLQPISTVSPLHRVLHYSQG
UniProt Q9BY49: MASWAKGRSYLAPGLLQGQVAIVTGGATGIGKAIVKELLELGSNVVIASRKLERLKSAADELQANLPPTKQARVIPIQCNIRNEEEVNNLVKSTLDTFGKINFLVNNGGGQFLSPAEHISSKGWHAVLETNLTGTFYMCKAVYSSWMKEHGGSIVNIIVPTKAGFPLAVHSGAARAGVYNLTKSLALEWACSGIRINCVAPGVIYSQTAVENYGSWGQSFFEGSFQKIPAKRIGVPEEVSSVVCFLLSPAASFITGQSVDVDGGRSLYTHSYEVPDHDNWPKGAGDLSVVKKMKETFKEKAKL
UniProt Q9P0J1: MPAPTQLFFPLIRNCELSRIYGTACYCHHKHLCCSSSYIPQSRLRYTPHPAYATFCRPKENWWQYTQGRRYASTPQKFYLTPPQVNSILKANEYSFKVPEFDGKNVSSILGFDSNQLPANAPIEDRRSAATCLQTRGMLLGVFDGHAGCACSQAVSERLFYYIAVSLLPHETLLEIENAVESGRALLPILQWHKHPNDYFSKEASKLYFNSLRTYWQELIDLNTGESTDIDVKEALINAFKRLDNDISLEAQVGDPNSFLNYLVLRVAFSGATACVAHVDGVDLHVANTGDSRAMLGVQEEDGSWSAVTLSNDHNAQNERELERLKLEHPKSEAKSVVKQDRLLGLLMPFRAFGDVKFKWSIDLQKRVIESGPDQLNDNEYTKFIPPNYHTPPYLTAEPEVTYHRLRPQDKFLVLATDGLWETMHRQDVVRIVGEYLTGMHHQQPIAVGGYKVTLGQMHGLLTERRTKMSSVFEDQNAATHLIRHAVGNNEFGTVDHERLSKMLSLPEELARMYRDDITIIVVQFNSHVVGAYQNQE
UniProt Q8N8D1: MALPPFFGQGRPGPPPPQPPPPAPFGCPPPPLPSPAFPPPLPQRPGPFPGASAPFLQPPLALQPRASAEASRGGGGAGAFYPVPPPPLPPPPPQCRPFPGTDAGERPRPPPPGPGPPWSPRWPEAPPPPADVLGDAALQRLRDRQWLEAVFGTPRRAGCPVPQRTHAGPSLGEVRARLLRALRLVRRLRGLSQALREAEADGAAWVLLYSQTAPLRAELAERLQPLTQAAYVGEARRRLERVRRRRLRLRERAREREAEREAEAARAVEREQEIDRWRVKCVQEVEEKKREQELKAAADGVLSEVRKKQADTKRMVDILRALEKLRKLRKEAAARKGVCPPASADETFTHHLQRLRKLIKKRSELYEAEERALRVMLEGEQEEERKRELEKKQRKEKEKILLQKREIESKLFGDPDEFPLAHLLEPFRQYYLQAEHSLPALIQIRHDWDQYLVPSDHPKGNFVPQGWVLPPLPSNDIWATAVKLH

compound: C1=CC=C2C(=C1)C3=NNC4=CC=CC(=C43)C2=O; test: log2 fold change, soluble protein after heating vs DMSO (PISA); higher = thermal stabilisation; K562 lysate, 10 uM; active = over 0.2 and 3.5 SD of the protein, either way, in both replicates (recomputed)
Procedure, shortened: (§1)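 Dounce homogenisation of K562 pellets in PBS pH 7.4 with 1 mM MgCl2 produced a crude extract, used at 1 mg/mL protein. Exposure to 10 μM compound lasted 30 min, and aliquots were then heated for 3 min across 48°C-58°C, pooled and brought to 0.5% NP-40 at 4°C. The supernatant after 21,000xg for 90 min was quantified by TMTpro 16plex LC-MS/MS with channel sums equalised. Duplicate values are given as log-two fold change in thermal stability relative to solvent controls.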

log2 fold change, inactive:
PCGF6 (UniProt Q9BYE7) -0.171, PCK1 (UniProt P35558) -0.262, PEX7 (UniProt O00628) -0.167, PFN3 (UniProt P60673) -0.162, PEX5 (UniProt J3KPV0) -0.18, PCGF1 (UniProt Q9BSM1) -0.198, PARPBP (UniProt Q9NWS1) 0.006, PCMTD1 (UniProt Q96MG8) 0.004, PEX1 (UniProt O43933) 0.035, PER2 (UniProt O15055) 0.091, PEMT isoform 2 (UniProt Q9UBM1) -0.201, PCNX3 (UniProt Q9H6A9) 0.027, PCMTD2 (UniProt Q9NV79) 0.021, PDE4DIP (UniProt E9PS60) 0.039

compound: C1CCN(C1)C(=O)NC2=CC=CC(=C2)NC3=NC=C(C(=N3)NCCC4=CN=CN4)Br; test: as above
Procedure, shortened: as §1

log2 fold change, inactive:
PEX7 (UniProt O00628) -0.02, PFN3 (UniProt P60673) -0.041, PEX3 (UniProt P56589) -0.056, PEX5 (UniProt J3KPV0) -0.056, PCGF1 (UniProt Q9BSM1) 0.009, PFN1 (UniProt I3L3D5) 0.009, PARP4 (UniProt Q9UKK3) -0.115, PARPBP (UniProt Q9NWS1) 0.064, PGAP2 isoform 2 (UniProt Q9UHJ9) 0.118, PECR (UniProt Q9BY49) -0.004, PDP1 isoform 2 (UniProt Q9P0J1) 0.176, PCMTD1 (UniProt Q96MG8) 0.02, PEX1 (UniProt O43933) 0.133, PCM1 isoform 5 (UniProt Q15154) 0.103, PBRM1 (UniProt Q86U86) -0.076, PCNX3 (UniProt Q9H6A9) -0.095, PDE6D (UniProt O43924) 0.185, PEX6 (UniProt Q13608) 0, PCMTD2 (UniProt Q9NV79) -0.062, PARP12 (UniProt Q9H0J9) -0.187, PDCD7 (UniProt Q8N8D1) -0.1, PDE4DIP (UniProt E9PS60) 0.114
